This list was built around the results that the source calls inconclusive (neither active nor inactive); the mix of calls is not that of the screen. A potency beside an inconclusive call is a rough fit, not a confirmed value. The source made the active and inactive calls. Calls come from the whole dose curve; as a rule, active = well fitted cell-killing curve with a large enough effect; inconclusive = small, poorly fitted or top-dose-only effect, or effect the other way; inactive = no such curve, though single readings can be large or run the other way.
Assay: Quantitative highthroughput screen to assess conditional lethalithy of SEM cells grown in Human Plasma-Like Medium with dialyzed fetal bovine serum (HPLM+ds) (AID 1963882); note: nearly all actives have a fitted effect of over 35% in size
Details: SEM B-ALL cells in HPLM+ds, CellTiter-Glo viability, 48 h; series mostly up to 45.8 µM
Excerpt: Assay Provider: Jason Cantor Ph.D.
Department of Biochemistry
University of Wisconsin-Madison, Madison, WI, USA
Chemical screening studies have identified drug sensitivities across hundreds of cancer cell lines but most putative therapeutics fail to translate. Discovery and development of drug candidates in models that more accurately reflect nutrient levels in human blood is a major challenge. Here we performed high-throughput screens in conventional versus Human Plasma-Like Medium (HPLM) to identify compounds that were "missed" when screening using the artificial culture condition. Sets of conditional anticancer compounds spanned phases of clinical development and included non-oncology drugs were assessed. […] We also traced conditional phenotypes for several chemotherapeutics to availability of HPLM-specific metabolites and confirmed others for compounds whose reported targets are encoded by nonessential genes. Our findings establish generalizable strategies for exploiting conditional lethality in HPLM to reveal therapeutic candidates and mechanisms of action in cancer cells.
Described herein are the results of each viability screens against three cell lines: NOMO1 (an acute myeloid leukemia cell line); P12-Ichikawa (a T-cell acute lymphoblastic leukemia); and SEM (a B-cell ALL). Each assay was screened using 3 different cell culture media: homemade human plasma-Like medium with 10% dialyzed fetal bovine serum (HPLM+ds); RPMI1640 with 10% untreated FBS and 5mM glucose (RPMI+s); and RPMI1640 with 10% dialyzed fetal bovine serum and 5 mM glucose (RPMI+ds).
PROTOCOL TABLE (as described by Inglese J, Shamu CE and Guy RK. 2007)
SEQUENCE No. (e.g., 1, 2, 3, etc.); […] (e.g., Cells, Incubation, Reagent, etc.); VALUE and DESCRIPTION.
1; Cells; 5 uL; white, solid bottom 1536-well Greiner assay plate.
2; Compounds; 23 nL; Kalypsis pin tool (Wako USA) equipped with a 1536-well pin head to transfer to the assay plates.
3; Incubation; 48 hours; 37C incubation.
4; Reagent; 3 uL; CellTiter Glo (Promega).
5; Incubation; 5 min, room temperature
6; Detection; Luminescence, Viewlux PerkinElmer.
NOTES (numbers refer to Sequence numbers above)
1. Briefly, 5 ul of cell reagent was dispensed using a Multidrop Combi Dispenser. The NOMO1 and SEM cells were plated at 500 cells/well and the P12-Ichikawa line at 1000 cells/well.
2. After seeding the cells, 23 nL of MIPE 4.1 library compounds (in DMSO) were added to each plate using a Kalypsys 1536 Pintool dispenser. Bortezomib at final concentration of […] and DMSO were added to each plate as positive and negative controls respectively. For each screen, MIPE 4.1 compounds were added over an eleven-point concentration range […] in 3-fold dilutions.
3. Each plate was covered with a stainless steel gasketed lid to prevent evaporation and incubated for 48 hour at 37C, 95% relative humidity, and 5% CO2.
4-5. Three microliter CellTilter-GloTM luminescent substrate mix (Promega) reagent was added to the assay plate and incubated at room temperature for 5 min.
6. The luminescence signal was measured using a ViewLux (PerkinElmer) multiplate reader with a 2 second exposure time per plate. Data for each compound were normalized as percent viability such that measurements for DMSO and the empty well controls in each plate were defined as 100% and 0%, respectively.
Potency is the fitted concentration of half-maximal effect.

| SMILES | Potency |
| --- | --- |
| COc1cc2nc(N3CCN(C(=O)C4CCCO4)CC3)nc(N)c2cc1OC (stereo not given) | inconclusive: 0.001 µM |
| CC(C)c1cnn2c(NCc3ccccc3)cc(NCCCCCCN)nc12 | inactive |
| O=C(c1ccc(OCCN2CCCCC2)cc1)c1c(-c2ccc(O)cc2)sc2cc(O)ccc12 | inconclusive: 5.9 µM [cytotoxic, partial curve, poor fit] |
| CCOc1ccc(Cc2cc([C@@H]3O[C@H](CO)[C@@H](O)[C@H](O)[C@@H]3O)ccc2Cl)cc1 | inactive |
| Cc1ccc(N(CC2=NCCN2)c2cccc(O)c2)cc1 | inconclusive: 37.2 µM [cytotoxic, single point] |
| O=C(O)Cn1nnc(-c2cc(N3CCC(Oc4cc(F)ccc4Br)CC3)no2)n1 | inconclusive: 37.2 µM [cytotoxic, single point] |
| C=CC(=O)Nc1cccc(Nc2nc(NC3CCC(N(C)C)CC3)nc3c2ncn3C(C)C)c1 (stereo not given) | active: 1.05 µM |
| CO[C@H]1C=CC=C(C)C(=O)NC2=CC(=O)C(NCCN(C)C)=C(C[C@@H](C)C[C@H](OC)[C@@H](O)[C@@H](C)C=C(C)[C@@H]1OC(N)=O)C2=O | active: 0.166 µM |
| Fc1ccc(CNc2ncnc3ccc(F)cc23)cc1 | inactive |
| CCOc1cc(C(=O)Nc2ccc(Cl)c(-c3nc4ccccc4[nH]3)c2)cc(OCC)c1OCC | inconclusive: 10.5 µM [cytotoxic, single point] |
| CC1=CC(=O)c2ccccc2C1=O | active: 16.6 µM |
| CCOCC(O)COc1ccc(NC(=O)CC[S+](C)C)cc1 (stereo not given) | inactive |
| COc1ccc(F)c(F)c1C(=O)c1cnc(NC2CCN(S(C)(=O)=O)CC2)nc1N | active: 4.69 µM |
| COc1cc2ncnc(Nc3ccc(F)c(Cl)c3)c2cc1NC(=O)C=CCN1CCCCC1 | inconclusive: 18.7 µM [cytotoxic, partial curve] |
| CCNC(=O)c1noc(-c2cc(C(C)C)c(O)cc2O)c1-c1ccc(CN2CCOCC2)cc1 | inconclusive: 0.0469 µM [cytotoxic, full curve] |
| Nc1nc(OCc2ccccc2)c2[nH]cnc2n1 | inactive |
| CN(C)CC=CC(=O)Nc1cc2c(Nc3ccc(F)c(Cl)c3)ncnc2cc1O[C@H]1CCOC1 | active: 1.05 µM |
| O=C(C=Cc1c(C(=O)O)[nH]c2cc(Cl)cc(Cl)c12)Nc1ccccc1 | inconclusive: 23.5 µM [cytotoxic, single point] |
| c1coc(CNc2ncnc3nc[nH]c23)c1 | inactive |

A run of entries from further up, as a working copy:

| SMILES | Potency |
| --- | --- |
| Nc1nc(OCc2ccccc2)c2[nH]cnc2n1 | inactive |
| CN(C)CC=CC(=O)Nc1cc2c(Nc3ccc(F)c(Cl)c3)ncnc2cc1O[C@H]1CCOC1 | active: 1.05 µM |

Further results.

| SMILES | Potency |
| --- | --- |
| O=C(Nc1ccccc1)Nc1ccc(-c2ccc(C(=O)[C@H]3CCC[C@H]3C(=O)O)cc2)cc1 | inactive |
| CNS(=O)(=O)Cc1ccc2[nH]cc(CCN(C)C)c2c1 | inactive |
| CCCCc1oc2ccc(NS(C)(=O)=O)cc2c1C(=O)c1ccc(OCCCN(CCCC)CCCC)cc1 | inconclusive: 26.4 µM [cytotoxic, single point] |
| Cn1cc(C[C@@H](N)C(=O)O)c2ccccc21 | inactive |
| CC=C1C2C=C(C)CC1(N)c1ccc(=O)[nH]c1C2 (stereo not given) | inconclusive: 10.5 µM [cytotoxic, single point] |
| NC(=O)c1cccc(N)c1 | inactive |
| S=c1nc[nH]c2nc[nH]c12 | inconclusive: 5.9 µM [cytotoxic, full curve, poor fit] |
| Cc1c(OCC(F)(F)F)ccnc1CS(=O)c1nc2ccccc2[nH]1 (stereo not given) | inactive |
| CCC(=O)O[C@]1(C(=O)SCF)[C@H](C)C[C@H]2[C@@H]3C[C@H](F)C4=CC(=O)C=C[C@]4(C)[C@@]3(F)[C@@H](O)C[C@@]21C | inconclusive: 0.0118 µM [cytotoxic, full curve, poor fit] |
| CO[C@H]1/C=C\O[C@@]2(C)Oc3c(C)c(O)c4c(O)c(c(C=NN5CCN(C6CCCC6)CC5)c(O)c4c3C2=O)NC(=O)C(C)=CC=C[C@H](C)[C@H](O)[C@@H](C)[C@@H](O)[C@@H](C)[C@H](OC(C)=O)[C@H]1C | inconclusive: 0.0833 µM [cytotoxic, full curve] |
| NC(=O)c1ccc2nc(-c3ccc(Oc4ccc(Cl)cc4)cc3)[nH]c2c1 | inconclusive: 29.6 µM [cytotoxic, single point] |
| CO[C@H]1C(=O)[C@]2(C)[C@@H](OC)C[C@H]3OC[C@@]3(OC(C)=O)[C@H]2[C@H](OC(=O)c2ccccc2)[C@]2(O)C[C@H](OC(=O)[C@H](O)[C@@H](NC(=O)OC(C)(C)C)c3ccccc3)C(C)=C1C2(C)C | inconclusive: 0.0132 µM [cytotoxic, full curve] |
| CC(=O)NC(C)c1ccc(Oc2ccc(OC(C)C)cc2)cc1 (stereo not given) | inactive |
| OCc1ccc(-c2nn(Cc3ccccc3)c3ccccc23)o1 | inconclusive: 1.05 µM [cytotoxic, full curve, poor fit] |
| O=C(O)c1ccc(-c2cc3cccnc3c(-c3ccc4nonc4c3)n2)cc1 | inconclusive: 7.43 µM [cytotoxic, full curve, poor fit] |
| O=NN(CCCl)C(=O)NCCCl | inactive |
| CC(C)Nc1cc(C(F)(F)F)cc2nc(NC(=O)c3cccnc3)nn12 | active: 1.32 µM |
| c1ccc(CNc2nc(NCc3ccccc3)c3ccccc3n2)cc1 | inconclusive: 33.2 µM [cytotoxic, single point] |
| CC1(C)O[C@@H]2C[C@@H]3[C@H]4C[C@@H](F)C5=CC(=O)C=C[C@]5(C)[C@@]4(F)[C@@H](O)C[C@]3(C)[C@]2(C(=O)CO)O1 | inconclusive: 0.0332 µM [cytotoxic, full curve] |
| CCC(C)N(C)C(=O)c1cc2ccccc2c(-c2ccccc2Cl)n1 (stereo not given) | inactive |
